PubChem BioAssay AID1159578 | Peter MacCallum Cancer Centre – 2015

Assay: 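Knock-downs that alter how fast lymphatic endothelial cells migrate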 (primary screen)
Cell system: human lymphatic endothelial cells
Knock-down reagent: siRNA pool against human genes, 40 nM
Time to read-out: 48 h after transfection
Detection: 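Cells stained with dye and imaged after a scratch; covered wound area and nuclei counted, duplicates averaged, migration set against mock wells and turned into a robust z-score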
Direction: migration robust z-score: higher = faster migration into the scratch; nuclei per well: higher = more cells in the well
Rule for the call: 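Pools averaging fewer than 3300 nuclei are never called; remaining pools count as changed when migration robust z lies outside -2 to 2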
Calls: active = migration changed; inactive = no migration change, or too few cells
In all, the deposit lists about 18,000 reagents; this is a part drawn at random. About 1,030 of all reagents (5.7%) count as active. 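Inactive calls also include pools with fewer than 3300 nuclei, whose migration was not assessed.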 Raw values are not corrected between plates. Not all columns of the deposit are shown. No sequences are given here.

{"target gene": "CACHD1 (cache domain containing 1)", "migration robust z-score": 0.64, "nuclei per well, duplicate mean": 6519, "call": "inactive"}
{"target gene": "ST7L (suppression of tumorigenicity 7 like)", "migration robust z-score": -1.14, "nuclei per well, duplicate mean": 5400, "call": "inactive"}
{"target gene": "NBL1 (NBL1, DAN family BMP antagonist)", "migration robust z-score": 0.27, "nuclei per well, duplicate mean": 5370, "call": "inactive"}
{"target gene": "CTSH (cathepsin H)", "migration robust z-score": -0.52, "nuclei per well, duplicate mean": 5885, "call": "inactive"}
{"target gene": "UBE3D (ubiquitin protein ligase E3D)", "migration robust z-score": 0.6, "nuclei per well, duplicate mean": 5474, "call": "inactive"}
{"target gene": "ZBTB44 (zinc finger and BTB domain containing 44)", "migration robust z-score": -0.02, "nuclei per well, duplicate mean": 6486, "call": "inactive"}
{"target gene": "CYRIA (CYFIP related Rac1 interactor A)", "migration robust z-score": -0.5, "nuclei per well, duplicate mean": 6416, "call": "inactive"}
{"target gene": "CDCA7 (cell division cycle associated 7)", "migration robust z-score": -0.68, "nuclei per well, duplicate mean": 5088, "call": "inactive"}
{"target gene": "HSFY2 (heat shock transcription factor Y-linked 2)", "migration robust z-score": -0.5, "nuclei per well, duplicate mean": 6544, "call": "inactive"}
{"target gene": "KIAA1958", "migration robust z-score": 1.85, "nuclei per well, duplicate mean": 5242, "call": "inactive"}
{"target gene": "RPRM (reprimo, TP53 dependent G2 arrest mediator homolog)", "migration robust z-score": -0.83, "nuclei per well, duplicate mean": 6470, "call": "inactive"}
{"target gene": "MRM2 (mitochondrial rRNA methyltransferase 2)", "migration robust z-score": -0.83, "nuclei per well, duplicate mean": 6180, "call": "inactive"}

2 neighbouring entries from above, quoted:
{"target gene": "CTSH (cathepsin H)", "migration robust z-score": -0.52, "nuclei per well, duplicate mean": 5885, "call": "inactive"}
{"target gene": "UBE3D (ubiquitin protein ligase E3D)", "migration robust z-score": 0.6, "nuclei per well, duplicate mean": 5474, "call": "inactive"}
